Measurements reported in patent publication US8288404B2, “Pyrrolidine GPR40 modulators” (Bristol-Myers Squibb Company, priority 2009, dated 2012).
Counter-ions that a name gives are not always drawn. Some of these results come from one statement about several compounds together.

By UniProt entry, the sequences of proteins in these tests, tags left out.
UniProt O14842, whole entry: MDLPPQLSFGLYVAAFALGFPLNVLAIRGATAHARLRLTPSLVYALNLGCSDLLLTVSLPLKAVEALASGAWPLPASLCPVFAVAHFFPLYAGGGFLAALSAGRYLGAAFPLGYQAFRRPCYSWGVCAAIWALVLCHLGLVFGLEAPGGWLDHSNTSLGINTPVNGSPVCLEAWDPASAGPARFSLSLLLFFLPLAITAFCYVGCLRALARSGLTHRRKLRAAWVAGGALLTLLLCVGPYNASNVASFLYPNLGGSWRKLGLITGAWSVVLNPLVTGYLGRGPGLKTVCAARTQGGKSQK

Target: T1, hGPR40 (Homo sapiens, UniProt O14842)
T1 construct: 3xFLAG; expressed in transfected cells
Assay: FDSS-Based Intracellular Calcium Assay (Human GRP40 In Vitro assay)
Format: cell-based
Method: FDSS-Based Intracellular Calcium Assay
Cell lines expressing GPR40 are generated using the pDEST 3xflag gene expression system and are cultured in culture medium comprising the following components: F12 (Gibco #11765), 10% lipid deprived fetal bovine serum, 250 ug/ml zeocin and 500 ug/ml G418. To conduct the fluorescent imaging plate reader (FLIPR)-based calcium flux assay to measure intracellular Ca^2+ response, cells expressing GPR40 are plated on 384 well plates (BD Biocoat #356697) at a density of 20,000 cells/20 ul medium per well in phenol red and serum-free DMEM (Gibco #21063-029) and incubated overnight. Using BD kit #s 80500-310 or -301, the cells are incubated with 20 ul per well of Hank's buffered salt solution with 1.7 mM probenecid and Fluo-3 at 37° C. for 30 minutes. Compounds are dissolved in DMSO and diluted to desired concentrations with assay buffer and added to the cells as 3× solution (20 ul per well). Run fluorescence/luminescence reader FDSS (Hamamatsu) to read intracellular Ca^2+ response.
Table 1 below lists hGPR40 EC50 values measured for the following examples.

Row | SMILES | hGRP40 modulating activity
1 | Cc1ccccc1Cc1ccc(N2CC[C@H](C)[C@H]2CC(=O)O)cc1 [Example 38, 2-((2R,3S)-3-methyl-1-(4-(2-methylbenzyl)phenyl)pyrrolidin-2-yl)acetic acid, TFA] | found having hGRP40 modulating activity
2 | Cc1ccccc1Sc1ccc(N2CCC[C@H]2CC(=O)O)cc1 [Example 44, (S)-2-(1-(4-(o-tolylthio)phenyl)pyrrolidin-2-yl)acetic acid, TFA] | found having hGRP40 modulating activity
3 | O=C(O)C[C@@H]1C[C@H](C(F)(F)F)CN1c1ccc(OCc2ccccc2OC(F)(F)F)cc1 [Example 53, 2-((2S,4S)-1-(4-(2-(trifluoromethoxy)benzyloxy)phenyl)-4-(trifluoromethyl)pyrrolidin-2-yl)acetic acid, TFA] | found having hGRP40 modulating activity
4 | O=C(O)C[C@@H]1CCCN1c1ccc(Cc2ccc(OCc3ccccc3)cc2)cc1 [Example 58, (S)-2-(1-(4-(4-(benzyloxy)benzyl)phenyl)pyrrolidin-2-yl)acetic acid, TFA] | found having hGRP40 modulating activity
5 | O=C(O)C[C@@H]1C[C@H](C(F)(F)F)CN1c1ccc(Oc2ccc(C(F)(F)F)cc2Cl)cc1 [Example 59, 2-((2S,4S)-1-(4-(2-chloro-4-(trifluoromethyl)phenoxy)phenyl)-4-(trifluoromethyl)pyrrolidin-2-yl)acetic acid] | found having hGRP40 modulating activity
6 | O=C(O)C[C@@H]1CCCN1c1ccc(OCc2ccccc2SC(F)(F)F)cc1 [Example 61, (S)-2-(1-(4-(2-(trifluoromethylthio)benzyloxy)phenyl)pyrrolidin-2-yl)acetic acid] | found having hGRP40 modulating activity
7 | O=C(O)C[C@@H]1CCCN1c1ccc(OCc2cccc(Cl)c2Cl)cc1 [Example 62, (S)-2-(1-(4-(2,3-dichlorobenzyloxy)phenyl)pyrrolidin-2-yl)acetic acid] | found having hGRP40 modulating activity
8 | O=C(O)C[C@@H]1CCCN1c1ccc(OCc2cccc(Oc3ccccc3F)c2)cc1 [Example 63, (S)-2-(1-(4-(3-(2-fluorophenoxy)benzyloxy)phenyl)pyrrolidin-2-yl)acetic acid] | found having hGRP40 modulating activity
9 | CSc1ccc(COc2ccc(N3CCC[C@H]3CC(=O)O)cc2)cc1 [Example 64, (S)-2-(1-(4-(4-(methylthio)benzyloxy)phenyl)pyrrolidin-2-yl)acetic acid] | found having hGRP40 modulating activity
10 | Cc1cccc(COc2ccc(N3CCC[C@H]3CC(=O)O)cc2)c1F [Example 65, (S)-2-(1-(4-(2-fluoro-3-methybenzyloxy)phenyl)pyrrolidin-2-yl)acetic acid] | found having hGRP40 modulating activity
11 | O=C(O)C[C@@H]1CCCN1c1ccc(OCc2ccc(-n3cccn3)cc2)cc1 [Example 66, (S)-2-(1-(4-(4-(1H-pyrazol-1-yl)benzyloxy)phenyl)pyrrolidin-2-yl)acetic acid] | found having hGRP40 modulating activity
12 | O=C(O)C[C@@H]1CCCN1c1cccc(OCc2ccccc2Cl)c1 [Example 67, (S)-2-(1-(3-(2-chlorobenzyloxy)phenyl)pyrrolidin-2-yl)acetic acid] | found having hGRP40 modulating activity
13 | COc1ccc(F)c(-c2cccc(Oc3ccc(N4CCC[C@H]4CC(=O)O)cc3)c2C)c1 [Example 68, 2-((2S)-1-(4-(2′-fluoro-5′-methoxy-2-methylbiphenyl-3-yloxy)phenyl)pyrrolidin-2-yl)acetic acid, TFA] | found having hGRP40 modulating activity

Results, then the molecule that gave them:

Row | hGRP40 modulating activity | SMILES
14 | found having hGRP40 modulating activity | Cc1ccccc1Cc1ccc(N2C[C@H](F)C[C@H]2CC(=O)O)cc1 [Example 37, 2-((2R,4R)-4-fluoro-1-(4-(2-methylbenzyl)phenyl)pyrrolidin-2-yl)acetic acid, TFA]
15 | found having hGRP40 modulating activity | Cc1ccccc1COc1ccc(N2C[C@@H](F)C[C@H]2CC(=O)O)cc1 [Example 39, 2-((2R,4S)-4-fluoro-1-(4-(2-methylbenzyloxy)phenyl)pyrrolidin-2-yl)acetic acid, TFA]
16 | found having hGRP40 modulating activity | Cc1ccccc1Cc1ccc(N2C[C@@H](C(F)(F)F)C[C@H]2CC(=O)O)cc1 [Example 40, 2-((2S,4S)-1-(4-(2-methylbenzyl)phenyl)-4-(trifluoromethyl)pyrrolidin-2-yl)acetic acid, TFA]
17 | found having hGRP40 modulating activity | Cc1ccccc1Oc1ccc(N2C[C@@H](C(F)(F)F)C[C@H]2CC(=O)O)cc1 [Example 41, 2-((2S,4S)-1-(4-(o-tolyloxy)phenyl)-4-(trifluoromethyl)pyrrolidin-2-yl)acetic acid, TFA]
18 | found having hGRP40 modulating activity | Cc1ccccc1COc1ccc(N2C[C@@H](C(F)(F)F)C[C@H]2CC(=O)O)cc1 [Example 42, 2-((2S,4S)-1-(4-(2-methylbenzyloxy)phenyl)-4-(trifluoromethyl)pyrrolidin-2-yl)acetic acid, TFA]
19 | found having hGRP40 modulating activity | Cc1ccccc1Cc1ccc(N2C[C@@H](F)C[C@H]2CC(=O)O)cc1 [Example 43, 2-((2R,4S)-4-fluoro-1-(4-(2-methylbenzyl)phenyl)pyrrolidin-2-yl)acetic acid, TFA]
20 | found having hGRP40 modulating activity | Cc1cccc(Oc2ccc(N3C[C@@H](C(F)(F)F)C[C@H]3CC(=O)O)cc2)c1C [Example 45, 2-((2S,4S)-1-(4-(2,3-dimethylphenoxy)phenyl)-4-(trifluoromethyl)pyrrolidin-2-yl)acetic acid, TFA]
21 | found having hGRP40 modulating activity | Cc1c(Cl)cccc1Oc1ccc(N2C[C@@H](C(F)(F)F)C[C@H]2CC(=O)O)cc1 [Example 46, 2-((2S,4S)-1-(4-(3-chloro-2-methylphenoxy)phenyl)-4-(trifluoromethyl)pyrrolidin-2-yl)acetic acid, TFA]
22 | found having hGRP40 modulating activity | Cc1ccccc1Oc1ccc(N2C[C@@H](C)C[C@H]2CC(=O)O)cc1 [Example 47, 2-((2S,4S)-4-methyl-1-(4-(o-tolyloxy)phenyl)pyrrolidin-2-yl)acetic acid, TFA]
23 | found having hGRP40 modulating activity | O=C(O)C[C@@H]1C[C@H](C(F)(F)F)CN1c1ccc(OCc2ccccc2)cc1 [Example 48, 2-((2S,4S)-1-(4-(benzyloxy)phenyl)-4-(trifluoromethyl)pyrrolidin-2-yl)acetic acid, TFA]
24 | found having hGRP40 modulating activity | Cc1cc(OCc2ccccc2)ccc1Oc1ccc(N2C[C@@H](C(F)(F)F)C[C@H]2CC(=O)O)cc1 [Example 49, 2-((2S,4S)-1-(4-(4-(benzyloxy)-2-methylphenoxy)phenyl)-4-(trifluoromethyl)pyrrolidin-2-yl)acetic acid, TFA]
25 | found having hGRP40 modulating activity | COc1ccc(Oc2ccc(N3C[C@@H](C(F)(F)F)C[C@H]3CC(=O)O)cc2)c(C)c1 [Example 50, 2-((2S,4S)-1-(4-(4-methoxy-2-methylphenoxy)phenyl)-4-(trifluoromethyl)pyrrolidin-2-yl)acetic acid, TFA]
26 | found having hGRP40 modulating activity | Cc1cccc(C)c1Oc1ccc(N2C[C@@H](C(F)(F)F)C[C@H]2CC(=O)O)cc1 [Example 51, 2-((2S,4S)-1-(4-(2,6-dimethylphenoxy)phenyl)-4-(trifluoromethyl)pyrrolidin-2-yl)acetic acid, TFA]
27 | found having hGRP40 modulating activity | O=C(O)C[C@@H]1C[C@H](C(F)(F)F)CN1c1ccc(Oc2ccccc2C(F)(F)F)cc1 [Example 52, 2-((2S,4S)-4-(trifluoromethyl)-1-(4-(2-(trifluoromethyl)phenoxy)phenyl)pyrrolidin-2-yl)acetic acid, TFA]
28 | found having hGRP40 modulating activity | O=C(O)C[C@@H]1C[C@H](C(F)(F)F)CN1c1ccc(OCc2ccccc2OC(F)F)cc1 [Example 54, 2-((2S,4S)-1-(4-(2-(difluoromethoxy)benzyloxy)phenyl)-4-(trifluoromethyl)pyrrolidin-2-yl)acetic acid, TFA]
29 | found having hGRP40 modulating activity | Cc1ccccc1CCc1ccc(N2C[C@@H](F)C[C@H]2CC(=O)O)cc1 [Example 55, 2-((2R,4S)-4-fluoro-1-(4-(2-methylphenethyl)phenyl)pyrrolidin-2-yl)acetic acid, TFA]
30 | found having hGRP40 modulating activity | CO[C@H]1C[C@@H](CC(=O)O)N(c2ccc(Oc3ccccc3C)cc2)C1 [Example 56, 2-((2S,4S)-4-methoxy-1-(4-(o-tolyloxy)phenyl)pyrrolidin-2-yl)acetic acid, TFA]
31 | found having hGRP40 modulating activity | CC[C@H]1C[C@@H](CC(=O)O)N(c2ccc(Oc3ccccc3C)cc2)C1 [Example 57, 2-((2S,4S)-4-ethyl-1-(4-(o-tolyloxy)phenyl)pyrrolidin-2-yl)acetic acid, TFA]
32 | found having hGRP40 modulating activity | O=C(O)C[C@@H]1C[C@H](C(F)(F)F)CN1c1ccc(Oc2ccccc2OC(F)(F)F)cc1 [Example 60, 2-((2S,4S)-1-(4-(2-(trifluoromethoxy)phenoxy)phenyl)-4-(trifluoromethyl)pyrrolidin-2-yl)acetic acid, TFA]
